Counter-ions that a name gives are not always drawn. This is one part of the list. Hit calls seldom repeat between salt and free forms of one compound.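 In K562 cells expressing nanoluciferase-fused kinases, luminescence was recorded at 4 h intervals between 2 and 18 h, normalized as percent of control with DMSO at 100% and a positive control at 0%. A significant (2 sigma) signal drop marks a time point as decreased. The authors' rule for a hit is not shown and takes in more than the number of time points.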
Assays:
Experiment in all cases: kinase-Nluc reporter destabilization hit call (1 = scored as downregulated) (binary); higher = compound decreases kinase abundance
Details in all cases: K562; 2-18 h
BRAF_V600E = tested on: BRAF_V600E
BTK = BTK (UniProt Q06187)
CAMK2A = CAMK2A (UniProt Q9UQM7)
CAMK2G = CAMK2G (UniProt Q13555)
CDK10 = CDK10 (UniProt Q15131)
CDK2 = CDK2 (UniProt P24941)
CDK3 = CDK3 (UniProt Q00526)
CDK4 = CDK4 (UniProt P11802)
CDK5 = CDK5 (UniProt Q00535)
CDK6 = CDK6 (UniProt Q00534)
CDK7 = CDK7 (UniProt P50613)
CDK9 = CDK9 (UniProt P50750)
CHEK2 = CHEK2 (UniProt O96017)
CSF1R = CSF1R (UniProt P07333)
CSK = CSK (UniProt P41240)
CSNK1A1 = CSNK1A1 (UniProt P48729)
CSNK1D = CSNK1D (UniProt P48730)
DDR1 = DDR1 (UniProt Q08345)
DYRK1B = DYRK1B (UniProt Q9Y463)
DYRK2 = DYRK2 (UniProt Q92630)

The chains behind the UniProt entries cited, without tags or fusion partners. Where a name states a change or a piece, a line headed by the entry shows the natural chain unless it says otherwise.
UniProt Q06187: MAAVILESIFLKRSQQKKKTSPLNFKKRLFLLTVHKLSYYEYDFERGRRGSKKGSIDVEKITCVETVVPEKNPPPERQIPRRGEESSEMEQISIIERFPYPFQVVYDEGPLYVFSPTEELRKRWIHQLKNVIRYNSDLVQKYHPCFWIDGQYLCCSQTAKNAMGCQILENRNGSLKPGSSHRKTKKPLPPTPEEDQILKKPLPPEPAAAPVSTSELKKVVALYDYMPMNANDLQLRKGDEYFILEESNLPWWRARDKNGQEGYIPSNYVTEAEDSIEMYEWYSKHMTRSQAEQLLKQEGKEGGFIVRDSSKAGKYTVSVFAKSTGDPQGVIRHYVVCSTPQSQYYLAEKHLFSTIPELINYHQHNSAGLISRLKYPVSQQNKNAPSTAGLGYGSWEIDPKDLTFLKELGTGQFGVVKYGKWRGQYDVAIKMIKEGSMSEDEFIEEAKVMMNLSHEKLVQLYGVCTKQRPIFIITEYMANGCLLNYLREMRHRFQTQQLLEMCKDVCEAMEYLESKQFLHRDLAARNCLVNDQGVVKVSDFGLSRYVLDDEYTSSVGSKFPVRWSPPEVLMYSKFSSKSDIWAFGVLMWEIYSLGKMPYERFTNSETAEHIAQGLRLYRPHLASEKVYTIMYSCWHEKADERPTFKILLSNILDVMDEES
UniProt Q15131: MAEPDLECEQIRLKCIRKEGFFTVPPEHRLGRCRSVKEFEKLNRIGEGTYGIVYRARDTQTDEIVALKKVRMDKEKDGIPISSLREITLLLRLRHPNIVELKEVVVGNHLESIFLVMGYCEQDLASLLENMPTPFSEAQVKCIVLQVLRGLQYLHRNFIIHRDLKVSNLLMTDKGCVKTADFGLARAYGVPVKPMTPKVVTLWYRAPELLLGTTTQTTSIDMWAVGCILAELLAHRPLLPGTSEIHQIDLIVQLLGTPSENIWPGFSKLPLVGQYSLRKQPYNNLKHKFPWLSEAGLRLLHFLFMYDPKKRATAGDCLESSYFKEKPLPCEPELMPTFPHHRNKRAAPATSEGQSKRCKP
UniProt Q00526: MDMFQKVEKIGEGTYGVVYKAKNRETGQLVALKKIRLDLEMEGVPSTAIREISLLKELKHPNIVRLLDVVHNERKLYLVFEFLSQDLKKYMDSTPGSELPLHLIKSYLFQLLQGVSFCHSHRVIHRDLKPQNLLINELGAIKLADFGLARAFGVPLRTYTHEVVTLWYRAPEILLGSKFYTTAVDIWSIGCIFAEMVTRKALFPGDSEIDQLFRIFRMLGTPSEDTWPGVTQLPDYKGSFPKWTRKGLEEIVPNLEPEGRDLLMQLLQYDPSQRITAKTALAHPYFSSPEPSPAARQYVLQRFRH
UniProt Q00535, whole entry, looked up: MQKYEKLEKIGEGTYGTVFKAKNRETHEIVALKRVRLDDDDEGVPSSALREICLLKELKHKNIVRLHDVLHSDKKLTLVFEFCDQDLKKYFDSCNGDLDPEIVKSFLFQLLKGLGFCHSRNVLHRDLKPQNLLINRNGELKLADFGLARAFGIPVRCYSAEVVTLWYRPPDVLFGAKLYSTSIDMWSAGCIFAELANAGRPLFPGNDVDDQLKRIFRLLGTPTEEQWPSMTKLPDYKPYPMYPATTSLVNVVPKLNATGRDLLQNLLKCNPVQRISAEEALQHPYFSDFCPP
UniProt Q00534, whole entry: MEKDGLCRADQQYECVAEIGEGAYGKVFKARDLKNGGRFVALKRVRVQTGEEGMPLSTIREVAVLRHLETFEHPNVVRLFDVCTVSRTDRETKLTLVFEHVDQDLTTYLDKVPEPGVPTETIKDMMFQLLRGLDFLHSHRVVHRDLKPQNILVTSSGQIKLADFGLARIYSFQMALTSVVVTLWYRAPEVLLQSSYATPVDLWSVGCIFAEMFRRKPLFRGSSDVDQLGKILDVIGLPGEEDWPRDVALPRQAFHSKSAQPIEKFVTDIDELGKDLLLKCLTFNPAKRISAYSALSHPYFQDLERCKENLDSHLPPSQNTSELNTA
UniProt P50613: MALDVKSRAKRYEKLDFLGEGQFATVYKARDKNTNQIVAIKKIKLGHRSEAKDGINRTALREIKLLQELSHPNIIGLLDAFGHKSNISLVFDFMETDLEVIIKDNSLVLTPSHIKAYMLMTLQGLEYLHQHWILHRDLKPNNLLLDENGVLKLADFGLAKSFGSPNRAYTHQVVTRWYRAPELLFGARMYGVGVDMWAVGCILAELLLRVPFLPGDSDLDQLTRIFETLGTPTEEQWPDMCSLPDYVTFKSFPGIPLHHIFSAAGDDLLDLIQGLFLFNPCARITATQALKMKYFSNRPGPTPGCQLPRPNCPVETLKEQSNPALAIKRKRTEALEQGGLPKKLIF
UniProt P50750, whole entry: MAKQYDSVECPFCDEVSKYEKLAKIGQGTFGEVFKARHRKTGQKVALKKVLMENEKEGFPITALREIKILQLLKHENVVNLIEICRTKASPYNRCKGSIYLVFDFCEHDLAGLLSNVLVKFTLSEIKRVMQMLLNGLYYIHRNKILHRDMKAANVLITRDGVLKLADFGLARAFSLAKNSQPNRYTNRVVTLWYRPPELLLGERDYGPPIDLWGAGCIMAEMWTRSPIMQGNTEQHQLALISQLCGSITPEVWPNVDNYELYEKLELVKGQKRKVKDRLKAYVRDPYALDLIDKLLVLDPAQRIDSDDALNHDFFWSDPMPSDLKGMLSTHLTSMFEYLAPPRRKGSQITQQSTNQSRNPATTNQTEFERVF
UniProt O96017, whole entry: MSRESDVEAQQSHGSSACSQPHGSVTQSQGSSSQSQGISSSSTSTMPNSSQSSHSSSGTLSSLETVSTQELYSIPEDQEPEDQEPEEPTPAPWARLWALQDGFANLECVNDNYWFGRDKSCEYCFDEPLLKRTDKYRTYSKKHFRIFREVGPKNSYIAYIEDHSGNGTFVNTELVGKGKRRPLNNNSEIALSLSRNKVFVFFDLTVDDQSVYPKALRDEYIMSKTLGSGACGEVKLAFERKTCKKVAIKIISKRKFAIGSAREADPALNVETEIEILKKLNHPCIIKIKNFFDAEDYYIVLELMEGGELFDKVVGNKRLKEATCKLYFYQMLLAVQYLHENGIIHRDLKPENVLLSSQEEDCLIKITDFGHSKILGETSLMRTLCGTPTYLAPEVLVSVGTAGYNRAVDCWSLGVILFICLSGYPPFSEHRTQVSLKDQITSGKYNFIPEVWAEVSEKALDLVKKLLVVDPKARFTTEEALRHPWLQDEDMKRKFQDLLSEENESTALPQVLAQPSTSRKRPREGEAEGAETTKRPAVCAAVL
UniProt P07333, whole entry: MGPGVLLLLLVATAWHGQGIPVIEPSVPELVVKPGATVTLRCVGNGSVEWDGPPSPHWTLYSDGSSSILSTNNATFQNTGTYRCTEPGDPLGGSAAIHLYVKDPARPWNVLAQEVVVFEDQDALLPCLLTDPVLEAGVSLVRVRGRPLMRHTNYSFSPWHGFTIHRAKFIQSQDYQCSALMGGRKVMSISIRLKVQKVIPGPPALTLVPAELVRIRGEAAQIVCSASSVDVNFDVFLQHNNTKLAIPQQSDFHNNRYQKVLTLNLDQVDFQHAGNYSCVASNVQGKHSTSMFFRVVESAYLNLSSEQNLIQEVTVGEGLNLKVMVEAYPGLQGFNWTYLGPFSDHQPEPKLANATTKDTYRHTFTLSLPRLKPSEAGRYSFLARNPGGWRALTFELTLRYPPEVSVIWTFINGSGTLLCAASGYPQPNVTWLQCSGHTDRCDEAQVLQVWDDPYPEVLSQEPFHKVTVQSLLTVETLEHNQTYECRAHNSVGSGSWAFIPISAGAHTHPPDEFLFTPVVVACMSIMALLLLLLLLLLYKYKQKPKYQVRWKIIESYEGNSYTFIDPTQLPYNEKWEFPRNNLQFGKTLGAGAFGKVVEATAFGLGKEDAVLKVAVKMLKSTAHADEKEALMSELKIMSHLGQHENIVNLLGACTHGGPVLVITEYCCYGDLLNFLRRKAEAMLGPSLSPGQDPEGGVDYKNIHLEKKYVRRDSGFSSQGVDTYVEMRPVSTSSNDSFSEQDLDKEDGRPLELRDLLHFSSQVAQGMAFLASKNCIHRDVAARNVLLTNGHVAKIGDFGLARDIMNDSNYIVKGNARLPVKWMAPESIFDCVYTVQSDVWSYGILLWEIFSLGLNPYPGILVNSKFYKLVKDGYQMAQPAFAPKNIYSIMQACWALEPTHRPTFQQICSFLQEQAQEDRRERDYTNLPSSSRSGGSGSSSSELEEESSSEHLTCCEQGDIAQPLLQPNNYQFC
UniProt P41240: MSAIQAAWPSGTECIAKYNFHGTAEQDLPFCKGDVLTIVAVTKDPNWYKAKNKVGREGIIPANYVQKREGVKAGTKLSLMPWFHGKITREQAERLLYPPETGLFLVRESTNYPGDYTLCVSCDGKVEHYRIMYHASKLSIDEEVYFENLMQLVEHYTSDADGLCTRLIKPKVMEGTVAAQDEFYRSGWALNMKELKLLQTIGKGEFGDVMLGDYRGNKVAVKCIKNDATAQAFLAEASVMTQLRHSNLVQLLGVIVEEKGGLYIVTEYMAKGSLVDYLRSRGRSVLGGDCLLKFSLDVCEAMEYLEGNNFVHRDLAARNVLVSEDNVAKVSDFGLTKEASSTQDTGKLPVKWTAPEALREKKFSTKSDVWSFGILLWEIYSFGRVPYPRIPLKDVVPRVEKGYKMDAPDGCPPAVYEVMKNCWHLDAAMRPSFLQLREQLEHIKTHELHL
UniProt P48729: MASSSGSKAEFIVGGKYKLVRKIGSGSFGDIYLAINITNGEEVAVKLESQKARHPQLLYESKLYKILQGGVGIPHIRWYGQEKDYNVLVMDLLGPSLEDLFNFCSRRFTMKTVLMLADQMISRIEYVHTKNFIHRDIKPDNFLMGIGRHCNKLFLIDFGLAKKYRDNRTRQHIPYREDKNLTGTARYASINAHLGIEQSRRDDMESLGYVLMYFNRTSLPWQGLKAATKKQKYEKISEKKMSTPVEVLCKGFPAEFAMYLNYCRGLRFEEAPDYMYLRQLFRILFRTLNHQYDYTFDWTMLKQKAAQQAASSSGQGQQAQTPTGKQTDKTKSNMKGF
UniProt Q08345: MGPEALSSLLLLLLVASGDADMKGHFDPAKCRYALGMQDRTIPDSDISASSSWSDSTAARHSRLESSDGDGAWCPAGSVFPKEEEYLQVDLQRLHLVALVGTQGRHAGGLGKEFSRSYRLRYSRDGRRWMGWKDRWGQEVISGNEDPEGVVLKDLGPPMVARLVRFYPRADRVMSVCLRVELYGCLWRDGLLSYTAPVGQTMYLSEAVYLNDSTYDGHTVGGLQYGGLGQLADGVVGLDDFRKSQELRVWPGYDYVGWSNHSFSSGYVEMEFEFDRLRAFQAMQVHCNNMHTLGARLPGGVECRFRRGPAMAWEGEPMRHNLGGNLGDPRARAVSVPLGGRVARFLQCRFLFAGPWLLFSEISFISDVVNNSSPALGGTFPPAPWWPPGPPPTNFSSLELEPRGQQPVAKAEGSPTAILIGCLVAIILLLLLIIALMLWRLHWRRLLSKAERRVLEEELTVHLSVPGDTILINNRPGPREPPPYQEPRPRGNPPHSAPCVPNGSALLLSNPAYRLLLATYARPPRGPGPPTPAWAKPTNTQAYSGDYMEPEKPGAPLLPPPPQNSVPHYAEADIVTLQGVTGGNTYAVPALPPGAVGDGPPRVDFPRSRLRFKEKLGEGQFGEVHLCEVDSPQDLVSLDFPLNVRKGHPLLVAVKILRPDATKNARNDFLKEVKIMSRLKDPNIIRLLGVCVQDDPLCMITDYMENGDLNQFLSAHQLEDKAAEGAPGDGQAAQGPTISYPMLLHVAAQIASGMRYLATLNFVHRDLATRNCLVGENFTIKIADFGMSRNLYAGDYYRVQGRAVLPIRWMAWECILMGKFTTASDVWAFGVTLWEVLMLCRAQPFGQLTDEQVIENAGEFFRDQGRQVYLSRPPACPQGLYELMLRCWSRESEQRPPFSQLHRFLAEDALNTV
UniProt Q92630: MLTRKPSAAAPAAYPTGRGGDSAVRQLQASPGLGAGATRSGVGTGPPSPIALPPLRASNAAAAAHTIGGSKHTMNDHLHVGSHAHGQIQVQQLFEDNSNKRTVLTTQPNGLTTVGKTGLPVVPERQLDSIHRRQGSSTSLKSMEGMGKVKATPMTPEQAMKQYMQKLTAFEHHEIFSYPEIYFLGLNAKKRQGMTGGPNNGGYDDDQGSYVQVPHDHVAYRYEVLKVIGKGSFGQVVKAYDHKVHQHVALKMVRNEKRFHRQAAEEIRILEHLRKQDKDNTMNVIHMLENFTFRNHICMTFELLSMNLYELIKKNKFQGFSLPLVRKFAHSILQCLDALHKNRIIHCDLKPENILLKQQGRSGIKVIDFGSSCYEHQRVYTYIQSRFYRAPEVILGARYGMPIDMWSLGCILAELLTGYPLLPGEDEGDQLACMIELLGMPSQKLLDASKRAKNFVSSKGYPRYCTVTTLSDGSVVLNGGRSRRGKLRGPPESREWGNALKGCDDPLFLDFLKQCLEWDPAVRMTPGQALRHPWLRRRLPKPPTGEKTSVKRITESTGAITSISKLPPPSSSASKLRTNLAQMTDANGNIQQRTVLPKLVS

Measured: kinase-Nluc reporter destabilization hit call

O=C1OC(/C=C/c2ccccc2)=NC/1=C\c1cccnc1 (10 µM)
inactive: BRAF_V600E 0 | BTK 0 | CAMK2A 0 | CAMK2G 0 | CDK10 = 0 | CDK2 = 0 | CDK3 = 0 | CDK4 = 0 | CDK5 = 0 | CDK6 = 0 | CDK7 = 0 | CDK9 = 0 | CHEK2 = 0 | CSF1R 0 | CSK 0 | CSNK1A1 = 0 | CSNK1D 0 | DDR1 = 0 | DYRK1B 0 | DYRK2 = 0

Cc1c(Cl)cccc1S(=O)(=O)Nc1nc(NCCc2ccccc2)nc2c1CN(Cc1ccccc1)CC2 (2.5 µM)
inactive: BRAF_V600E 0 | BTK 0 | CAMK2A 0 | CAMK2G 0 | CDK10 = 0 | CDK2 = 0 | CDK3 = 0 | CDK4 = 0 | CDK5 = 0 | CDK6 = 0 | CDK7 = 0 | CDK9 = 0 | CHEK2 = 0 | CSF1R 0 | CSK 0 | CSNK1A1 = 0 | CSNK1D 0 | DDR1 = 0 | DYRK1B 0 | DYRK2 = 0

COC(=O)/C=C/c1ccccc1 [Methyl cinnamate] (10 µM)
inactive: BRAF_V600E 0 | BTK 0 | CAMK2A 0 | CAMK2G 0 | CDK10 = 0 | CDK2 = 0 | CDK3 = 0 | CDK4 = 0 | CDK5 = 0 | CDK6 = 0 | CDK7 = 0 | CDK9 = 0 | CHEK2 = 0 | CSF1R 0 | CSK 0 | CSNK1A1 = 0 | CSNK1D 0 | DDR1 = 0 | DYRK1B 0 | DYRK2 = 0

O=C(Nc1cc(Cl)cc2c1[nH]c1cnccc12)c1cccnc1 (10 µM)
inactive: BRAF_V600E 0 | BTK 0 | CAMK2A 0 | CAMK2G 0 | CDK10 = 0 | CDK2 = 0 | CDK3 = 0 | CDK4 = 0 | CDK5 = 0 | CDK6 = 0 | CDK7 = 0 | CDK9 = 0 | CHEK2 = 0 | CSF1R 0 | CSK 0 | CSNK1A1 = 0 | CSNK1D 0 | DDR1 = 0 | DYRK1B 0 | DYRK2 = 0

Cc1cc(Nc2cc(N)ncn2)c(=O)n2c1C(=O)NC21CCCCC1 [Tomivosertib] (10 µM)
inactive: BRAF_V600E 0 | BTK 0 | CAMK2A 0 | CAMK2G 0 | CDK10 = 0 | CDK2 = 0 | CDK3 = 0 | CDK4 = 0 | CDK5 = 0 | CDK6 = 0 | CDK7 = 0 | CDK9 = 0 | CHEK2 = 0 | CSF1R 0 | CSK 0 | CSNK1A1 = 0 | CSNK1D 0 | DDR1 = 0 | DYRK1B 0 | DYRK2 = 0

Cc1cccc(/C=N/Nc2cc(N3CCOCC3)n3nc(-c4ccncc4)cc3n2)c1 (10 µM)
inactive: BRAF_V600E 0 | BTK 0 | CAMK2A 0 | CAMK2G 0 | CDK10 = 0 | CDK2 = 0 | CDK3 = 0 | CDK4 = 0 | CDK5 = 0 | CDK6 = 0 | CDK7 = 0 | CDK9 = 0 | CHEK2 = 0 | CSF1R 0 | CSK 0 | CSNK1A1 = 0 | CSNK1D 0 | DDR1 = 0 | DYRK1B 0 | DYRK2 = 0

COc1cc(F)ccc1-c1ncnc(Nc2cccc(C[S@](C)(=N)=O)c2)n1 [Atuveciclib] (2.5 µM)
inactive: BRAF_V600E 0 | BTK 0 | CAMK2A 0 | CAMK2G 0 | CDK10 = 0 | CDK2 = 0 | CDK3 = 0 | CDK4 = 0 | CDK5 = 0 | CDK6 = 0 | CDK7 = 0 | CDK9 = 0 | CHEK2 = 0 | CSF1R 0 | CSK 0 | CSNK1A1 = 0 | CSNK1D 0 | DDR1 = 0 | DYRK1B 0 | DYRK2 = 0

C=CC(=O)N1CCC[C@@H](n2nc(-c3ccc(Oc4ccccc4)cc3)c3c(N)n[nH]c(=O)c32)C1 [BTK inhibitor 17] (10 µM)
inactive: BRAF_V600E 0 | BTK 0 | CAMK2A 0 | CAMK2G 0 | CDK10 = 0 | CDK2 = 0 | CDK3 = 0 | CDK4 = 0 | CDK5 = 0 | CDK6 = 0 | CDK7 = 0 | CDK9 = 0 | CHEK2 = 0 | CSF1R 0 | CSK 0 | CSNK1A1 = 0 | CSNK1D 0 | DDR1 = 0 | DYRK1B 0 | DYRK2 = 0

O=c1c2c([nH]n1-c1nc3ccccc3s1)CCCC2 (10 µM)
inactive: BRAF_V600E 0 | BTK 0 | CAMK2A 0 | CAMK2G 0 | CDK10 = 0 | CDK2 = 0 | CDK3 = 0 | CDK4 = 0 | CDK5 = 0 | CDK6 = 0 | CDK7 = 0 | CDK9 = 0 | CHEK2 = 0 | CSF1R 0 | CSK 0 | CSNK1A1 = 0 | CSNK1D 0 | DDR1 = 0 | DYRK1B 0 | DYRK2 = 0

CCc1c[nH]c2ncnc(N3CC[C@](N)(CNC(=O)c4ccc(F)cc4F)C3)c12 (10 µM)
inactive: BRAF_V600E 0 | BTK 0 | CAMK2A 0 | CAMK2G 0 | CDK10 = 0 | CDK2 = 0 | CDK3 = 0 | CDK4 = 0 | CDK5 = 0 | CDK6 = 0 | CDK7 = 0 | CDK9 = 0 | CHEK2 = 0 | CSF1R 0 | CSK 0 | CSNK1A1 = 0 | CSNK1D 0 | DDR1 = 0 | DYRK1B 0 | DYRK2 = 0

COc1cc2ncnc(Oc3ccc(CC(=O)Nc4cnn(C(C)C)c4)cc3)c2cc1OC (10 µM)
inactive: BRAF_V600E 0 | BTK 0 | CAMK2A 0 | CAMK2G 0 | CDK10 = 0 | CDK2 = 0 | CDK3 = 0 | CDK4 = 0 | CDK5 = 0 | CDK6 = 0 | CDK7 = 0 | CDK9 = 0 | CHEK2 = 0 | CSF1R 0 | CSK 0 | CSNK1A1 = 0 | CSNK1D 0 | DDR1 = 0 | DYRK1B 0 | DYRK2 = 0

COc1cc2nccc(Oc3ccc(NC(=O)c4cn(C(C)C)c(=O)n(-c5ccc(F)cc5)c4=O)cc3F)c2cc1OC (0.5 µM)
inactive: BRAF_V600E 0 | BTK 0 | CAMK2A 0 | CAMK2G 0 | CDK10 = 0 | CDK2 = 0 | CDK3 = 0 | CDK4 = 0 | CDK5 = 0 | CDK6 = 0 | CDK7 = 0 | CDK9 = 0 | CHEK2 = 0 | CSF1R 0 | CSK 0 | CSNK1A1 = 0 | CSNK1D 0 | DDR1 = 0 | DYRK1B 0 | DYRK2 = 0

COc1ccc(Nc2ncc(C(F)(F)F)c(NC3CC3)n2)cc1OC (10 µM)
inactive: BRAF_V600E 0 | BTK 0 | CAMK2A 0 | CAMK2G 0 | CDK10 = 0 | CDK2 = 0 | CDK3 = 0 | CDK4 = 0 | CDK5 = 0 | CDK6 = 0 | CDK7 = 0 | CDK9 = 0 | CHEK2 = 0 | CSF1R 0 | CSK 0 | CSNK1A1 = 0 | CSNK1D 0 | DDR1 = 0 | DYRK1B 0 | DYRK2 = 0

CN1CCN(c2cc(-c3ccncc3)c(-c3ccc4ccccc4c3)nn2)CC1 (10 µM)
inactive: BRAF_V600E 0 | BTK 0 | CAMK2A 0 | CAMK2G 0 | CDK10 = 0 | CDK2 = 0 | CDK3 = 0 | CDK4 = 0 | CDK5 = 0 | CDK6 = 0 | CDK7 = 0 | CDK9 = 0 | CHEK2 = 0 | CSF1R 0 | CSK 0 | CSNK1A1 = 0 | CSNK1D 0 | DDR1 = 0 | DYRK1B 0 | DYRK2 = 0

C=C1CCC[C@]2(C)C=C3OC(=O)C(C)=C3C[C@@H]12 [Atractylenolide I] (10 µM)
inactive: BRAF_V600E 0 | BTK 0 | CAMK2A 0 | CAMK2G 0 | CDK10 = 0 | CDK2 = 0 | CDK3 = 0 | CDK4 = 0 | CDK5 = 0 | CDK6 = 0 | CDK7 = 0 | CDK9 = 0 | CHEK2 = 0 | CSF1R 0 | CSK 0 | CSNK1A1 = 0 | CSNK1D 0 | DDR1 = 0 | DYRK1B 0 | DYRK2 = 0

Pulled by compound from the list above (2):
CN1CCN(c2cc(-c3ccncc3)c(-c3ccc4ccccc4c3)nn2)CC1 (10 µM)
inactive: BRAF_V600E 0 | BTK 0 | CAMK2A 0 | CAMK2G 0 | CDK10 = 0 | CDK2 = 0 | CDK3 = 0 | CDK4 = 0 | CDK5 = 0 | CDK6 = 0 | CDK7 = 0 | CDK9 = 0 | CHEK2 = 0 | CSF1R 0 | CSK 0 | CSNK1A1 = 0 | CSNK1D 0 | DDR1 = 0 | DYRK1B 0 | DYRK2 = 0

COc1ccc(Nc2ncc(C(F)(F)F)c(NC3CC3)n2)cc1OC (10 µM)
inactive: BRAF_V600E 0 | BTK 0 | CAMK2A 0 | CAMK2G 0 | CDK10 = 0 | CDK2 = 0 | CDK3 = 0 | CDK4 = 0 | CDK5 = 0 | CDK6 = 0 | CDK7 = 0 | CDK9 = 0 | CHEK2 = 0 | CSF1R 0 | CSK 0 | CSNK1A1 = 0 | CSNK1D 0 | DDR1 = 0 | DYRK1B 0 | DYRK2 = 0

(next part)

Cc1ccc(-n2nc(C(C)(C)C)cc2NC(=O)Nc2ccc(OCCN3CCOCC3)cc2)cc1 (10 µM)
inactive: BRAF_V600E 0 | BTK 0 | CAMK2A 0 | CAMK2G 0 | CDK10 = 0 | CDK2 = 0 | CDK3 = 0 | CDK4 = 0 | CDK5 = 0 | CDK6 = 0 | CDK7 = 0 | CDK9 = 0 | CHEK2 = 0 | CSF1R 0 | CSK 0 | CSNK1A1 = 0 | CSNK1D 0 | DDR1 = 0 | DYRK1B 0 | DYRK2 = 0

NCC1CCC(CNc2nc(NCc3ccccc3OC(F)(F)F)ncc2[N+](=O)[O-])CC1 (stereo not given) [PKC-theta inhibitor] (10 µM)
inactive: BRAF_V600E 0 | BTK 0 | CAMK2A 0 | CAMK2G 0 | CDK10 = 0 | CDK2 = 0 | CDK3 = 0 | CDK4 = 0 | CDK5 = 0 | CDK6 = 0 | CDK7 = 0 | CDK9 = 0 | CHEK2 = 0 | CSF1R 0 | CSK 0 | CSNK1A1 = 0 | CSNK1D 0 | DDR1 = 0 | DYRK1B 0 | DYRK2 = 0

NCCOc1ccc(Cl)cc1C(=O)Nc1ccc([N+](=O)[O-])cc1Cl [HJC0152 hydrochloride] (2 µM)
inactive: BRAF_V600E 0 | BTK 0 | CAMK2A 0 | CAMK2G 0 | CDK10 = 0 | CDK2 = 0 | CDK3 = 0 | CDK4 = 0 | CDK5 = 0 | CDK6 = 0 | CDK7 = 0 | CDK9 = 0 | CHEK2 = 0 | CSF1R 0 | CSK 0 | CSNK1A1 = 0 | CSNK1D 0 | DDR1 = 0 | DYRK1B 0 | DYRK2 = 0
